1 molecule from patent US20240294618A1 (CENTIVAX, published 2024) can be followed below.

The target of assay [1] is T1, long-neurotoxin-krait (bungarus) (alpha-bungarotoxin) (krait (Bungarus caeruleus)) (UniProt D2N116).
T1 sequence: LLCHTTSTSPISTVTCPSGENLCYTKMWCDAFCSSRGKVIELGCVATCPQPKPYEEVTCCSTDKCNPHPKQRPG
Kind of assay: Biacore and Octet HTX kinetics assays. (In SPR one partner is held on a chip, and binding of the other changes the refractive index at the surface.)

Assay [2] deals with T2, long-neurotoxin-taipan, recombinant, Taipan-Avi-His (coastal taipan (Oxyuranus scutatellus)) (UniProt A8HDK9).
T2 sequence: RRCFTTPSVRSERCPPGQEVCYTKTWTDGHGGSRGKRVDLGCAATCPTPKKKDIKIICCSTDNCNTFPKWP
The experiment in a line: Biacore and Octet HTX kinetics assays.

Results are given in words; binding and its absence hold for the method and conditions named. Some results given as binding are weak or reduced against the parent protein; the word gives no strength. For some assays here: Sequences can lack the tags named with a protein.

B1: SNEURO_P01_B11 (antibody, V domains shown)
VH: QVQLQESGGGLVQPGGSLRLSCAASGFTFSNFDMHWVRQSPGKGLEWVSGLDHSGGAHYAGSVKGRFTISREDAKNSLDLQMNNLRVDDTAVYFCVRGTLYHYTSGSYYSDAFDIWGQGTLVTVSS
VL: DIVMTQSPSSLSASVGDRVTITCRASQGISDNLNWYQQKPGKAPKLLIYAASTLQSGVPSRLSGSGSGTDFTLTISSLQPEDFATYYCQQANSFPLTFGGGTKVEIKR
For the molecule B1, the binding result in assay [1] and in assay [2] was “binds” throughout.
